Test results taken from publication PMC10035508.
Negatives hold for the conditions tested. Construct, isoform or probe ends are uncertain for at least one entry.

Chains of the proteins cited; added tags and fusions are not shown. Lines headed by an entry give the natural chain unless they say otherwise; changes in a name come on top.
UniProt P26599: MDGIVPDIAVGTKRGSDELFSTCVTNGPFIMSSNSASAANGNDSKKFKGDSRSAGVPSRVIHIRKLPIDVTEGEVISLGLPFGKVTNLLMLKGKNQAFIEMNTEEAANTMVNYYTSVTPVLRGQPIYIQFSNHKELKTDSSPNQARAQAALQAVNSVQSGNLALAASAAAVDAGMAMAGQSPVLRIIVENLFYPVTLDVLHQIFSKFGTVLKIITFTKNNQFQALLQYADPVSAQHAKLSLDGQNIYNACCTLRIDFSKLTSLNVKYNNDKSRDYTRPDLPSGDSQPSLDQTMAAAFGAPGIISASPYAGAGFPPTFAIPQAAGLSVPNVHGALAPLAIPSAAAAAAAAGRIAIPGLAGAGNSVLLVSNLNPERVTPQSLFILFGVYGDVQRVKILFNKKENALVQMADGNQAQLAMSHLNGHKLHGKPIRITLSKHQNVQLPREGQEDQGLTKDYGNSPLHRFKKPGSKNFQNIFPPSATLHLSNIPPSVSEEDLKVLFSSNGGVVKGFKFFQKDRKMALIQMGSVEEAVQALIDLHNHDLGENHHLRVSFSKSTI

Target: PTBP1 (hsPTBP1) (Homo sapiens) (UniProt P26599)
Test: EMSA
Settings: EMSA in RBB: 10 mM sodium cacodylate pH 7.0, 100 mM NaCl, 1 mM MgCl2, 1 mM DTT, 0.1 ug/uL BSA, 0.1 ug/uL yeast tRNA, 0.4 U/uL RNasin, 1 U/uL heparin; recombinant protein; residues 1-557; protein details: 6xHis (pET21A+); label: fluorescent; probe letters rebuilt from the primers and the genome

Sequence | Kd [nM] | binding result
GGGCCUCACACUUAGGCUAGACAAGAACUGUAAUGAGGGAUAAUAAUUGACCAGAUGACAUUUUACAAAAGAUUCAAGUUUCUUCUUCUUCAUUCCUUUUUUUUAAUUGAGUCCAGUAAACCGUAUGCGAAGCACUGUGUUAAAUACCUUGAUCUACCUUAUCUCAGUGGUCCUCGACUGAAUCGCCUUGUGUAACUUAUUAAAAAUAUGUUUUCCUGGAUGCCAGCUUGUGUUGGAAGGGAGCCAGGAAAAU [FRAGT4] | 150 | 
GGGGCCUUAUCCCAUUUCUUCCUCAUAAAAAUCUUGAGAAGUCUCAGUAAUUGUAAAAGAAGAUAAAUUGGAAGAACAAAAAUAGCUUUUCAGGCACUCUAUUCUGUCUAUACUAUGAUCAUGAAGGUAUAAGGAGUGUGUUUCUGAAUUCAAUUGAUUUGAAUAGAUGAAGUCCUAGGCCUUCAUUUUUUCUUUUCUCUGGUUCCUCUCUGCAGUCUCCUUUCAGCCUGCUUCA [FRAGT6] | 60 | 
GGGGUUGCUUUUGUGGAUGUGUGAUUUUAAUUUUCAAUAAACUUUUGCAUCUUGGUUUAUCUUGCAGUUUUUUUGUUUCUGUCUCUCUCACUUUUUUUCCACUAAAUACUAGAAUAUUCUCAUGUAAGUGCUUGAAGUAGCAUGUGUAGGUCU [CPA2] | 60 | 
GGGUAUUUCUGGCAUCCUCGUGGUGUAAAUAAUUUCUUAAUUAUGCAAAAAAUUGCUUUCUUGGGUUUGAUAUAUGCAUUUAUAGGCCGAGUUUUUUACUCAAAGGAUUAAGGUAUUUAUCCAUCUCAAUCUGGGAAUAUCCAAAAUACUCAUUAAACAGUUCUUUGUAAAUGCCUGAUGCCACAGGCCCCAUUCUGAUAAUAUCAUAUUUCUCUAUACCUCACACUUAGGCUAGACAAGAAC [FRAGT3] | 150 | 
GGGUGGAAGGGAGCCAGGAAAAUGCAUUUUUAUAAGUUUCACAAGUGAUUCUGAUGUUUAUUUCUGGUUAACUACUAUAGCCUUAUCCCAUUUCUUCCUCAUAAAAAUCUUGAGAAGUCUCAGUAAUUGUAAAAGAAGAUAAAUUGGAAGAACAAAAAUAGCUUUUCAGGCACUCUAUUCUGU [FRAGT5] |  | no binding
